Measurements as given in paper PMC10381084.
These are yes or no findings as the source states them, for the method shown. In cells and extracts the contact can be indirect. Some results given as binding are weak or reduced against the parent protein; the word gives no strength.

By UniProt entry, the sequences of proteins in these tests, tags left out.
UniProt P51140: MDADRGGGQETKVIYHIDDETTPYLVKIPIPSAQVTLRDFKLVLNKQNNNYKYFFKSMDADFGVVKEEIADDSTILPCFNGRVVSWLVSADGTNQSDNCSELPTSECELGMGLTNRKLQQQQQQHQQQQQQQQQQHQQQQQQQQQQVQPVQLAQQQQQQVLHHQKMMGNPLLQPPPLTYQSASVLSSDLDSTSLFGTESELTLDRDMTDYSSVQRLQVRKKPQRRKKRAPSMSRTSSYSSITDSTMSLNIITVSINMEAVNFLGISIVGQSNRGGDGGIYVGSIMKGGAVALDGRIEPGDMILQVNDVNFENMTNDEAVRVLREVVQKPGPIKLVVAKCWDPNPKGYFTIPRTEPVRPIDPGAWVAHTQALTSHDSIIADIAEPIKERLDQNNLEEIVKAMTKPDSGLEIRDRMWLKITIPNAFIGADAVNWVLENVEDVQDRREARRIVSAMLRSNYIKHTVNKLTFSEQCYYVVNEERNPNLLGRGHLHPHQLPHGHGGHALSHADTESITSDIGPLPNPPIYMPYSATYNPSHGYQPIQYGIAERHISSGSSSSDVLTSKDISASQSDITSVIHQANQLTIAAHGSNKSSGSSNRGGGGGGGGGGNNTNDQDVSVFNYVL

Biological target: T1, pY-peptide (Vang 367–381, phosphorylated at Y374) (Drosophila)
T1 sequence (peptide, phosphotyrosine at Y374 ([pY]); C-terminal amide): ISNSFKYYEVDGVSN
Assay: pull-down; competitive binding: Dsh-GFP mixed in solution with increasing levels of Pk on beads coupled with the pY or the Y peptide; retention of Dsh-GFP on the beads by Western blot; only the target purified

binding: binds
Substance: Dsh-GFP (Drosophila Dishevelled) (from UniProt P51140 1-623)
